These are yes or no findings as the source states them, for the method shown. In cells and extracts the contact can be indirect. Some results given as binding are weak or reduced against the parent protein; the word gives no strength.
Target: latency-associated nuclear antigen (LANA) (Kaposi's sarcoma-associated herpesvirus (KSHV, HHV8) (endogenous in latently infected BCBL-1, BC-3, TIVE-LTC)) (UniProt Q9QR71)
Experiment: co-IP; nuclear extract of BCBL-1, BC-3 or TIVE-LTC cells (extracted at 500 mM NaCl, diluted to 150 mM NaCl), immunoprecipitated with monoclonal rat antibody against LANA or control IgG at 4°C overnight, protein A/G beads, washed with PBS with 0.1% Tween-20, Western blot for endogenous RbBP5, ASH2L, hSET1 or MLL1

The chains behind the UniProt entries cited, without tags or fusion partners.
UniProt Q9QR71: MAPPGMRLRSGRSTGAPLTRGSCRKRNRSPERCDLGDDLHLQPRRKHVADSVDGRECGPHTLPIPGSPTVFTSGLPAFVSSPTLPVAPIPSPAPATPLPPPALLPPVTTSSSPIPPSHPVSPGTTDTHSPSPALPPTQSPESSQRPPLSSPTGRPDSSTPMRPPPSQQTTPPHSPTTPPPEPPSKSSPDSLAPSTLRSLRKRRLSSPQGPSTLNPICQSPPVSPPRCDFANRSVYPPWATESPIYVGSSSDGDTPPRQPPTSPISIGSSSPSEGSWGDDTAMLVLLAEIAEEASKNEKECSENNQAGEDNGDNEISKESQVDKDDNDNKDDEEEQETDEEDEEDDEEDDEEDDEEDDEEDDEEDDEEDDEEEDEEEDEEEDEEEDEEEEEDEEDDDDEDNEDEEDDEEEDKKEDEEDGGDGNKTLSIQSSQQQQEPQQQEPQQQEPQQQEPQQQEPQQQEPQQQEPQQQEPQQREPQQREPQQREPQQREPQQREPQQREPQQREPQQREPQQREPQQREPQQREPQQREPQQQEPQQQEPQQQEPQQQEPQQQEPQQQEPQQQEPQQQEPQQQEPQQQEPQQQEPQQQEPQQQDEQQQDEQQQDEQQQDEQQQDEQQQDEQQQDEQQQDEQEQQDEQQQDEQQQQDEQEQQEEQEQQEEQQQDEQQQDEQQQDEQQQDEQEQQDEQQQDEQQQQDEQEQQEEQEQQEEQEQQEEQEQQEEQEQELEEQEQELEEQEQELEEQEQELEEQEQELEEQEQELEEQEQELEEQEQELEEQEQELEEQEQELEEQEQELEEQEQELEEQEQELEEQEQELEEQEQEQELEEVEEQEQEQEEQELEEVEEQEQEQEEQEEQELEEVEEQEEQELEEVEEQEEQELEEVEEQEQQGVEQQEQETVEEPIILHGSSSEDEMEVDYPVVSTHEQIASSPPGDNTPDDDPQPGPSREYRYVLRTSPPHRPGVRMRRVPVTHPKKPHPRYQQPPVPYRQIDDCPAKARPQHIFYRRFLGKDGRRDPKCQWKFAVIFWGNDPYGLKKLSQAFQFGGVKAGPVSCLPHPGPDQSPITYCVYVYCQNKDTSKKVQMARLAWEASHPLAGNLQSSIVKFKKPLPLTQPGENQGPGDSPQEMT
UniProt O15047: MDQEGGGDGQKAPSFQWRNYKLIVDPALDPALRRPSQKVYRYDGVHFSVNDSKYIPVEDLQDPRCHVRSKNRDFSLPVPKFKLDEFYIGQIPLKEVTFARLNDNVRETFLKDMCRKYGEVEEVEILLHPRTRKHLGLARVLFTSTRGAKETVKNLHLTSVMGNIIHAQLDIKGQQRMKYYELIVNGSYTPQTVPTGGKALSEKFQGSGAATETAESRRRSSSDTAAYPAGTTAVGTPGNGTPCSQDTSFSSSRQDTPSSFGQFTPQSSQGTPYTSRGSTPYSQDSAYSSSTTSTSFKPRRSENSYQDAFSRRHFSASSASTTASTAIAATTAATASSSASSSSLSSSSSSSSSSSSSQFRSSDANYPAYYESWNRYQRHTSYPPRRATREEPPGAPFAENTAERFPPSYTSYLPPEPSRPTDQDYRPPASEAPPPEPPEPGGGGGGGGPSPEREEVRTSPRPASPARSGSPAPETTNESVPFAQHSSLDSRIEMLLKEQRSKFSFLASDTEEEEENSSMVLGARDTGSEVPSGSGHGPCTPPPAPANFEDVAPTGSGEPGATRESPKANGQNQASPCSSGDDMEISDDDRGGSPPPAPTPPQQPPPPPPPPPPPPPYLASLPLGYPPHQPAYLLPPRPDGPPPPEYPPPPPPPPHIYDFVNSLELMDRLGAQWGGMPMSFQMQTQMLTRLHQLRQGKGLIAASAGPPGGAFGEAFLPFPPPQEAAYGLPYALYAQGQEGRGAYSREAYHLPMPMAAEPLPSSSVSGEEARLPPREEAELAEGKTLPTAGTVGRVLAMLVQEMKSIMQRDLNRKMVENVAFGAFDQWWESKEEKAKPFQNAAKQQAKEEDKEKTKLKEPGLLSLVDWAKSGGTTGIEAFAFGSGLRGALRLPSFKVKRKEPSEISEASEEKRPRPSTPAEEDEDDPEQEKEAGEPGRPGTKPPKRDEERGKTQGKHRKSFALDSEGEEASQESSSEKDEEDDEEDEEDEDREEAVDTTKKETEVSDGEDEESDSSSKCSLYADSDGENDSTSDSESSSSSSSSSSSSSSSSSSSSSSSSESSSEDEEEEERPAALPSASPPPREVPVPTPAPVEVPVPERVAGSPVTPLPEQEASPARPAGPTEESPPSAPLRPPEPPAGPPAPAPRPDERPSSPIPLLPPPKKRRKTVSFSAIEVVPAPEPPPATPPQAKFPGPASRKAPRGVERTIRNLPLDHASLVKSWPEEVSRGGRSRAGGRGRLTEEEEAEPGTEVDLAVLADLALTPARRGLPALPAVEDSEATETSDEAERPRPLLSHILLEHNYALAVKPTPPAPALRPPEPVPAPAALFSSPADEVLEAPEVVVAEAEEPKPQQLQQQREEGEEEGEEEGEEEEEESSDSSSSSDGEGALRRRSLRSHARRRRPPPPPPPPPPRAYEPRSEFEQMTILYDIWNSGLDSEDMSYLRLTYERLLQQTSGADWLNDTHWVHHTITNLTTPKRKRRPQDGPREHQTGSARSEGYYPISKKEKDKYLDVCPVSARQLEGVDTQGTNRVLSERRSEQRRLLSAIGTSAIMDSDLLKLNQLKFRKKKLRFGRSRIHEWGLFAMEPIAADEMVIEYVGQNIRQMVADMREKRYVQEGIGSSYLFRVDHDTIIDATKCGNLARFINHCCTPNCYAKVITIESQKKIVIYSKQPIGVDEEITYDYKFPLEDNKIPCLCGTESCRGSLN

MLL1 (from UniProt Q03164 1-3969) (enzyme)
binding: no binding

H3K4 methyltransferase hSET1 (from UniProt O15047 1-1707) (enzyme)
binding: binds

From paper PMC4102568
